These are yes or no findings as the source states them, for the method shown. In cells and extracts the contact can be indirect. Some entries that bind do so weakly or less than the wild type.
Key:
[1] = target: GST-tagged CK2β NP_001311.3; p.Asp32His (Homo sapiens) (UniProt P67870); assay: pull-down; Glutathione Sepharose 4B beads carrying GST-tagged CK2β incubated overnight with precleared lysates of HeLa cells expressing GFP-tagged β-catenin; immunoblot; only the target purified
[2] = target: GST-tagged CK2β, wild type (Homo sapiens) (UniProt P67870); assay: as above
[3] = target: GST-tagged CK2β NP_001311.3; p.Asp32His (Homo sapiens) (UniProt P67870); assay: pull-down; Glutathione Sepharose 4B beads carrying GST-tagged CK2β incubated overnight with precleared HeLa cell lysates; washed five times with PBS; immunoblot of endogenous proteins; only the target purified
[4] = target: GST-tagged CK2β, wild type (Homo sapiens) (UniProt P67870); assay: as above

Chains of the proteins cited; added tags and fusions are not shown. Lines headed by an entry give the natural chain unless they say otherwise; changes in a name come on top. A line that says so, or that is headed by a name, gives the form on record, which may keep a tag or linker.
UniProt P67870: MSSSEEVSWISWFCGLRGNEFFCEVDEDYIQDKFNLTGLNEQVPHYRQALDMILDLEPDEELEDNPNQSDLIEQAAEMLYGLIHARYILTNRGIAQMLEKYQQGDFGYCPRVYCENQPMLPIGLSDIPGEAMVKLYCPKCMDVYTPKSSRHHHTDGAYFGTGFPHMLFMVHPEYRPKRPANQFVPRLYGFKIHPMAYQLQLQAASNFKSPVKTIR
GST-tagged CK2β NP_001311.3; p.Asp32His (P67870, form named): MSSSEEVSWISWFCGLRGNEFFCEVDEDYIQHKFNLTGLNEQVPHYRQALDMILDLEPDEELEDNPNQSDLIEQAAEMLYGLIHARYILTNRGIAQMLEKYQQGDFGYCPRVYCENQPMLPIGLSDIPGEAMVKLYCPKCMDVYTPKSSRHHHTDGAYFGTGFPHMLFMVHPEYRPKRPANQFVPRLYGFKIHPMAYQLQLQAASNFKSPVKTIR
UniProt P35222: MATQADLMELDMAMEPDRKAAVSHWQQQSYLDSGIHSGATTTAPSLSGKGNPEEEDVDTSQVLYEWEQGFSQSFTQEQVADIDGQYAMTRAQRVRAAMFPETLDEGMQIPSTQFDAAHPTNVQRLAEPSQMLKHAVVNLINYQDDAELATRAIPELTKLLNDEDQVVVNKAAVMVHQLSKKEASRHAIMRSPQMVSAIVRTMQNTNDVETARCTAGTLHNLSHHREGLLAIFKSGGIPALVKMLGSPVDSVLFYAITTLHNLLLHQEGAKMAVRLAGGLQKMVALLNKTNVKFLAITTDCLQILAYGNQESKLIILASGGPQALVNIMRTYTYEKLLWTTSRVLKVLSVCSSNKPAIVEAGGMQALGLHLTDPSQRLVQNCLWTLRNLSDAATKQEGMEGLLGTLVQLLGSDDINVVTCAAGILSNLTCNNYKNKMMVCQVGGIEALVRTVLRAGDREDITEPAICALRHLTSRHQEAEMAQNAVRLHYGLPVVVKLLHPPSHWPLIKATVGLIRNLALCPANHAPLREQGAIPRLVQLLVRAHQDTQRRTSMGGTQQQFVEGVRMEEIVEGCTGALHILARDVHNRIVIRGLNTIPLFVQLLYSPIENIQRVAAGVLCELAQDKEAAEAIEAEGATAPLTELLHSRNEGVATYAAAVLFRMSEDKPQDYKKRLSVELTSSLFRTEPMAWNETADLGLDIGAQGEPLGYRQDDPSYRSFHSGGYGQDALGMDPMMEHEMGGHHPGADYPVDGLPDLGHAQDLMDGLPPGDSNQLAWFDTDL

Row | binding [1] | binding [2] | binding [3] | binding [4] | Substance
1 | binds | binds |  |  | GFP-tagged β-catenin (from UniProt P35222 1-781)
2 |  |  | binds | binds | β-catenin, endogenous (from UniProt P35222 1-781)

From PMC9092267
